{
  "sequences": {"note": "Sequences of proteins named here, by UniProt entry; tags and fusion partners are left off.", "UniProt P27361": "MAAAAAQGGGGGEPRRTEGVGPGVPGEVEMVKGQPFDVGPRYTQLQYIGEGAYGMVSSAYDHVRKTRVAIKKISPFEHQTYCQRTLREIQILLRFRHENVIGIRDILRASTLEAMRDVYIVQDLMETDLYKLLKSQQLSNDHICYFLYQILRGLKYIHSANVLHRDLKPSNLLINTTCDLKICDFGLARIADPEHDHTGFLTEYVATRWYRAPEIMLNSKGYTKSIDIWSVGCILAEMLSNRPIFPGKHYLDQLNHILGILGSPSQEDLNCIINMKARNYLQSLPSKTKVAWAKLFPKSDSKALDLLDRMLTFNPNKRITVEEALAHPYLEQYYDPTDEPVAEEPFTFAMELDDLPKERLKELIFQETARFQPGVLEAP", "UniProt P28482": "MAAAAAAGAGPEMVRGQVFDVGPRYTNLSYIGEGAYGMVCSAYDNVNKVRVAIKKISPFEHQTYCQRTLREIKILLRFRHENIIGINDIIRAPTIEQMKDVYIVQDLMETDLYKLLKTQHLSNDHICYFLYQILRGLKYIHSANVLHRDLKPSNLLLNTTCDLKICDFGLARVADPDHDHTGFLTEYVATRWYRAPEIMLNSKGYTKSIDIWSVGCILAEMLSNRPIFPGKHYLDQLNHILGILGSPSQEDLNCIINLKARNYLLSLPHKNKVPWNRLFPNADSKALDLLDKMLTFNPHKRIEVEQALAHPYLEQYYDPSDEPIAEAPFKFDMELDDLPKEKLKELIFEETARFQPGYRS"},
  "source": "paper PMC4613680",
  "key": {"[1]": {"target": "Flag-ERK1 (extracellular signal-regulated kinase 1) (UniProt P27361)", "assay": "co-IP; COS cells co-transfected with Myc-WT-CIITA and Flag-ERK1, Flag-ERK2 or both; lysed in 1% NP40 18 h after transfection; pre-cleared with mouse IgG and Protein G; immunoprecipitated with anti-Myc or anti-Flag as indicated; immunoblotted with anti-Myc"}, "[2]": {"target": "Flag-ERK2 (extracellular signal-regulated kinase 2) (UniProt P28482)", "assay": "co-IP; COS cells co-transfected with Myc-WT-CIITA and Flag-ERK1, Flag-ERK2 or both; lysed in 1% NP40 18 h after transfection; pre-cleared with mouse IgG and Protein G; immunoprecipitated with anti-Myc or anti-Flag as indicated; immunoblotted with anti-Myc"}},
  "note": "No constants are given. Whether binding was seen depends on the method and setting. Binding seen in cells or lysates may run through a third protein. Some results given as binding are weak or reduced against the parent protein; the word gives no strength. Sequences can lack the tags named with a protein.",
  "data": [
    {"binder": "Myc-WT-CIITA (class II transactivator, isoform III) (protein, UniProt P33076 1-1130) MRCLAPRPAGSYLSEPQGSSQCATMELGPLEGGYLELLNSDADPLCLYHFYDQMDLAGEEEIELYSEPDTDTINCDQFSRLLCDMEGDEETREAYANIAELDQYVFQDSQLEGLSKDIFKHIGPDEVIGESMEMPAEVGQKSQKRPFPEELPADLKHWKPAEPPTVVTGSLLVGPVSDCSTLPCLPLPALFNQEPASGQMRLEKTDQIPMPFSSSSLSCLNLPEGPIQFVPTISTLPHGLWQISEAGTGVSSIFIYHGEVPQASQVPPPSGFTVHGLPTSPDRPGSTSPFAPSATDLPSMPEPALTSRANMTEHKTSPTQCPAAGEVSNKLPKWPEPVEQFYRSLQDTYGAEPAGPDGILVEVDLVQARLERSSSKSLERELATPDWAERQLAQGGLAEVLLAAKEHRRPRETRVIAVLGKAGQGKSYWAGAVSRAWACGRLPQYDFVFSVPCHCLNRPGDAYGLQDLLFSLGPQPLVAADEVFSHILKRPDRVLLILDGFEELEAQDGFLHSTCGPAPAEPCSLRGLLAGLFQKKLLRGCTLLLTARPRGRLVQSLSKADALFELSGFSMEQAQAYVMRYFESSGMTEHQDRALTLLRDRPLLLSHSHSPTLCRAVCQLSEALLELGEDAKLPSTLTGLYVGLLGRAALDSPPGALAELAKLAWELGRRHQSTLQEDQFPSADVRTWAMAKGLVQHPPRAAESELAFPSFLLQCFLGALWLALSGEIKDKELPQYLALTPRKKRPYDNWLEGVPRFLAGLIFQPPARCLGALLGPSAAASVDRKQKVLARYLKRLQPGTLRARQLLELLHCAHEAEEAGIWQHVVQELPGRLSFLGTRLTPPDAHVLGKALEAAGQDFSLDLRSTGICPSGLGSLVGLSCVTRFRAALSDTVALWESLQQHGETKLLQAAEEKFTIEPFKAKSLKDVEDLGKLVQTQRTRSSSEDTAGELPAVRDLKKLEFALGPVSGPQAFPKLVRILTAFSSLQHLDLDALSENKIGDEGVSQLSATFPQLKSLETLNLSQNNITDLGAYKLAEALPSLAASLLRLSLYNNCICDVGAESLARVLPDMVSLRVMDVQYNKFTAAGAQQLAASLRRCPHVETLAMWTPTIPFSVQEHLQQQDSRISLR", "values": [
      {"measurement": "binding", "setting": "[1]", "value": "binds"},
      {"measurement": "binding", "setting": "[2]", "value": "binds"}
    ]}
  ]
}
